Reference: the supplement of paper PMC10849652
Some of the results follow.

Amino acid sequences for entries named in this document (tags omitted). A change or cut given only in a name is not applied to a line headed by its entry.
UniProt Q86V48: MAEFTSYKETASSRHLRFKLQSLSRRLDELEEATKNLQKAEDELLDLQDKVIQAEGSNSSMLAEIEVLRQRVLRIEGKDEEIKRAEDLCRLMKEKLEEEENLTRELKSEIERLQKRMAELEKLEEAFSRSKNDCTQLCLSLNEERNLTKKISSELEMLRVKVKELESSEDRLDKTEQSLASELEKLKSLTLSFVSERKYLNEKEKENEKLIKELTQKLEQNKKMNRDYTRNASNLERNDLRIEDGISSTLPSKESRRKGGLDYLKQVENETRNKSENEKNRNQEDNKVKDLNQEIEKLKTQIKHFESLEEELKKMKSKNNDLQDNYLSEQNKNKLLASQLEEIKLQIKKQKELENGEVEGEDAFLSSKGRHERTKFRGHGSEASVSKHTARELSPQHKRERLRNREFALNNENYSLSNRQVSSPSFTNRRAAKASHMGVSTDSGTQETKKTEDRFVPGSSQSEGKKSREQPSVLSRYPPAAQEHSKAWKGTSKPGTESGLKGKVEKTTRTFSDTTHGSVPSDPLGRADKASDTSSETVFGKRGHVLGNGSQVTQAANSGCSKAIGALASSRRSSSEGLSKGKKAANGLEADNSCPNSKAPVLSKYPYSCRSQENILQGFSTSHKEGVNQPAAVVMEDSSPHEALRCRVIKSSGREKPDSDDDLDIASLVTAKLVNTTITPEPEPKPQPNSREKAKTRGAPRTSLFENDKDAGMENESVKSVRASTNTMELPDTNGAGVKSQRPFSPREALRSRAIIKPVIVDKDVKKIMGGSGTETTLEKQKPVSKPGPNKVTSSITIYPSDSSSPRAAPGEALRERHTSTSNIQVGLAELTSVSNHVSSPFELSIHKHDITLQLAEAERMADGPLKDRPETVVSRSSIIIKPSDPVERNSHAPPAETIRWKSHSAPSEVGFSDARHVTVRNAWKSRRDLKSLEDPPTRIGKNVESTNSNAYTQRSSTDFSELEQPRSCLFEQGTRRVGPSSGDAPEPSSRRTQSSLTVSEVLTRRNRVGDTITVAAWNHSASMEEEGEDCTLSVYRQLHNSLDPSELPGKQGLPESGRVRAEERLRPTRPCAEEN
UniProt P49641: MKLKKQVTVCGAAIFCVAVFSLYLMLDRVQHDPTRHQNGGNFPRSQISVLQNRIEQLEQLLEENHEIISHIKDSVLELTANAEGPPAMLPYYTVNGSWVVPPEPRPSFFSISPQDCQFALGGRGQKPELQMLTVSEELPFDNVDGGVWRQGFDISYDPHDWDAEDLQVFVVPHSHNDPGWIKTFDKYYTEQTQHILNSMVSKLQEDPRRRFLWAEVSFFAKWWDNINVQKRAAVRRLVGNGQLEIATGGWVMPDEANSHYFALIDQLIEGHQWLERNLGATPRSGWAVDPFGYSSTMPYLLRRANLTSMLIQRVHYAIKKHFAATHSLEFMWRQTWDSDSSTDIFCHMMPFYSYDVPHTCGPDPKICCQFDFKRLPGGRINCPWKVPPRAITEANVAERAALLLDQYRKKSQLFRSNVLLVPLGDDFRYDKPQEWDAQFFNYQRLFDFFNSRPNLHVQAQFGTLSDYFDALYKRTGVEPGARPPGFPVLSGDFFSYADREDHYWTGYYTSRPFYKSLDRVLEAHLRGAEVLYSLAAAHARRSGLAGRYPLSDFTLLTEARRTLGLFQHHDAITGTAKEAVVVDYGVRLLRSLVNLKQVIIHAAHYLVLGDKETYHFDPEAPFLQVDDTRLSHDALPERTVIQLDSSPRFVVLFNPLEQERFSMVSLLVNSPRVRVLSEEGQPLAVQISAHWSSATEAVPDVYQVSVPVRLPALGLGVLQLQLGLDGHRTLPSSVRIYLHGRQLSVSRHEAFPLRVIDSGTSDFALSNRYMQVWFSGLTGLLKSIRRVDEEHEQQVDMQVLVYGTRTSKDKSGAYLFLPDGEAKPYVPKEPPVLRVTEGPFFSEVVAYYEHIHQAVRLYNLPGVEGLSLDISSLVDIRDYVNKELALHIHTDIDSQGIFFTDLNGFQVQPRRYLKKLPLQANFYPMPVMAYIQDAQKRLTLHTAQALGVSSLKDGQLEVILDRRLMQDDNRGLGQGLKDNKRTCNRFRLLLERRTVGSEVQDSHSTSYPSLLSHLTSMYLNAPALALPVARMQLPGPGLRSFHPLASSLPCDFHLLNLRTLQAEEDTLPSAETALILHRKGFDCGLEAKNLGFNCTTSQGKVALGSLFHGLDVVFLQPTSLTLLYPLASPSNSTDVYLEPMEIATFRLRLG
UniProt O75608: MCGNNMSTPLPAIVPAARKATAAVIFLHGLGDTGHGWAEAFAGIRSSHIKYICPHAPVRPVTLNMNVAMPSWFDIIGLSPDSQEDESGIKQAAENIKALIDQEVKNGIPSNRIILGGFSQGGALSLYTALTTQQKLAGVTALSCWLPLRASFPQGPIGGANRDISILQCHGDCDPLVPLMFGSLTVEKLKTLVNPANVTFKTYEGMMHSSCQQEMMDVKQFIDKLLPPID
UniProt Q9Y333: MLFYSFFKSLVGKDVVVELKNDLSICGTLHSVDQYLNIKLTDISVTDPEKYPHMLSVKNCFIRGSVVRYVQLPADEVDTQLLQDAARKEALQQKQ
UniProt O43318: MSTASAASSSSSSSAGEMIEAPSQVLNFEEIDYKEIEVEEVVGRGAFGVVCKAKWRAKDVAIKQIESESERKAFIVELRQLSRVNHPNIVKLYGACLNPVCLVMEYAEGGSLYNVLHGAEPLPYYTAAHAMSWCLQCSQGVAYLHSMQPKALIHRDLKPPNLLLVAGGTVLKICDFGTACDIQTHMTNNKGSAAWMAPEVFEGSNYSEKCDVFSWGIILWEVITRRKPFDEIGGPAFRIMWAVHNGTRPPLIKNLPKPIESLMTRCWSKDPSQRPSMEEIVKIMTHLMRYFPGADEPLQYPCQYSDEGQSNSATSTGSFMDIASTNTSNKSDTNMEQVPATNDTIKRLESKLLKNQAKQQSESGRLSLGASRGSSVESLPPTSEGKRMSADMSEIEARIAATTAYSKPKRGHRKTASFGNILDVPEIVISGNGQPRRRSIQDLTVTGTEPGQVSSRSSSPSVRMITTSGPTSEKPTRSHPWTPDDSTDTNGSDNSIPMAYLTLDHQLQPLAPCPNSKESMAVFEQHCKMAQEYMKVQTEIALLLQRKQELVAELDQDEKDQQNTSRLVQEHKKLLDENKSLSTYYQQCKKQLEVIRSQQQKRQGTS
UniProt Q15691: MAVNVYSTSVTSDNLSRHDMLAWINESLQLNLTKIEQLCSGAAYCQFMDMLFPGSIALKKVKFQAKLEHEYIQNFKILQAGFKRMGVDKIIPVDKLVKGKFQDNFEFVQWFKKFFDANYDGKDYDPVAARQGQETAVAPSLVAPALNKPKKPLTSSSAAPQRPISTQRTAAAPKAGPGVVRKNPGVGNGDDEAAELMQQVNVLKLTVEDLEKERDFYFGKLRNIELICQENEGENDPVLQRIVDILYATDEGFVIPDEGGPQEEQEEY
UniProt O95777: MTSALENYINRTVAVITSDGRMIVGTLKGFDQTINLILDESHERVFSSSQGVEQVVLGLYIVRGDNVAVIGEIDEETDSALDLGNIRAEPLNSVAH
UniProt O14733: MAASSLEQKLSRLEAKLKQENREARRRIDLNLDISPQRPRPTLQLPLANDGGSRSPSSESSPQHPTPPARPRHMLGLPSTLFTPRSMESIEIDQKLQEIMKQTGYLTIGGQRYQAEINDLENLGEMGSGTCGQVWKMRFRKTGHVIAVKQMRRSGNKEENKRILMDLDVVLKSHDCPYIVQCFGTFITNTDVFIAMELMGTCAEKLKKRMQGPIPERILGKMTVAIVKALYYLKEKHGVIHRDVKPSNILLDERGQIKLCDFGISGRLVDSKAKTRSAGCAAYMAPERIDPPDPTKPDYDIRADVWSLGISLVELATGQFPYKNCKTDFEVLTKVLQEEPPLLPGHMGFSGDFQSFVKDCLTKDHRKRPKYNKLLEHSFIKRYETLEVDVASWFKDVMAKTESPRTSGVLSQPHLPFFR
UniProt P02788: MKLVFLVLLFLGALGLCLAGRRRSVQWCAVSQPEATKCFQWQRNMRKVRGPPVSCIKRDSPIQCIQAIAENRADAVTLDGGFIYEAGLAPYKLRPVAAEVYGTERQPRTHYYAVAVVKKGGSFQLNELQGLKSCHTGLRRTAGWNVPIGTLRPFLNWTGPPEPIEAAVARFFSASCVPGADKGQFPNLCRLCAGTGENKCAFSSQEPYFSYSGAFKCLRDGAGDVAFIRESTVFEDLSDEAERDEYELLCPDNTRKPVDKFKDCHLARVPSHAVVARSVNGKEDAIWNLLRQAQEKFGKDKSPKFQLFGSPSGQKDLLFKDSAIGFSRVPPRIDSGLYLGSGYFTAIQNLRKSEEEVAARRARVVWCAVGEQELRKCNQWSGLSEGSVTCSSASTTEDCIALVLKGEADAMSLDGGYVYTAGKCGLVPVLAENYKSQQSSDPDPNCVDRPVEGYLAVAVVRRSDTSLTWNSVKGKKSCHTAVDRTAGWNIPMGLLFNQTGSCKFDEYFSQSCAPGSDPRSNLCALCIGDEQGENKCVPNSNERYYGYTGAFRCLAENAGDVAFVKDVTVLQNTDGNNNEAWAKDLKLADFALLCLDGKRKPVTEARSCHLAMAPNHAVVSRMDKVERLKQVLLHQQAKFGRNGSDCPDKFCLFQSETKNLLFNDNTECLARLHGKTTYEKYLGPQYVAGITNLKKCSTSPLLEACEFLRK
UniProt Q96S90: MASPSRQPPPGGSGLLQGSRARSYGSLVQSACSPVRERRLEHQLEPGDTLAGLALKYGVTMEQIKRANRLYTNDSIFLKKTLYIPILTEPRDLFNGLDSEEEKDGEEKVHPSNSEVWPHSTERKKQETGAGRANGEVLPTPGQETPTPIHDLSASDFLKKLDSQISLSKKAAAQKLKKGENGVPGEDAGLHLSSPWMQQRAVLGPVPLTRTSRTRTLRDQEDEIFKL
UniProt Q9Y2U5: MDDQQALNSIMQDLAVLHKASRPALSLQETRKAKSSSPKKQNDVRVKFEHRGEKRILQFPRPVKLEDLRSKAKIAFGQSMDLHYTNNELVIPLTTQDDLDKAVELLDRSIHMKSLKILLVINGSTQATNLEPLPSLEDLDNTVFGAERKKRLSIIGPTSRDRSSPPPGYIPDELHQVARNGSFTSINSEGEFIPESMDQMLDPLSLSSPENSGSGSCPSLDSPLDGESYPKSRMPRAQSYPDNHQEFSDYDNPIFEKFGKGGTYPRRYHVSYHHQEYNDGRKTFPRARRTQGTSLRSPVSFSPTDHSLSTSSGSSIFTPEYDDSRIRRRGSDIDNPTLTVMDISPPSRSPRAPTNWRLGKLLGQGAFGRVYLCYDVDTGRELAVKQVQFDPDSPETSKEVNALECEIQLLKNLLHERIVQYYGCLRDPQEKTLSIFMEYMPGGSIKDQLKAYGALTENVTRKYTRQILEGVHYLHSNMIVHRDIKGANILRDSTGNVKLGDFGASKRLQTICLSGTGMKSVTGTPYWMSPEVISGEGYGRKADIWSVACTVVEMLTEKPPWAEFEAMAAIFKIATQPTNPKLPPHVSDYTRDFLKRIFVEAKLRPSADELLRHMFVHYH

What was measured:
Assay in all cases: log2 fold change, soluble protein after heating vs DMSO (PISA); higher = thermal stabilisation; K562 cells, 10 uM, 30 min; active = over 0.2 and 3.5 SD of the protein, either way, in both replicates (recomputed)
erlotinib = compound: C#Cc1cccc(Nc2ncnc3cc(OCCOC)c(OCCOC)cc23)c1 [erlotinib]
Method in brief: (§1)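 K562 cells at 2×10^6 cells/mL were treated for 30 min with 10 μM compound, and aliquots were heated for 3 min over 48°C-58°C before pooling. Extraction used PBS with 0.5% NP-40 at 4°C, and soluble protein was the supernatant after 21,000xg for 90 min, measured by TMTpro 16plex LC-MS/MS with channel sums equalised. Thermal stability values, relative to control samples and from duplicates, are log2 fold changes.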

[1] = compound: C/C(=N\NC(=O)C1=CC(=CC=C1)S(=O)(=O)N2CCOCC2)/C3=C(C=CC(=C3)Cl)O
Method in brief: as §1

[2] = compound: C1=CC(=C(C=C1Cl)C2=NC3=NC=CN=C3C(=N2)NC4=CC=NC=C4)F
Method in brief: as §1

[3] = compound: C1=CC(=CC=C1C2=NC3=C(N2)C=C(C=C3)C(=O)N)OC4=CC=C(C=C4)Cl
Method in brief: as §1

[4] = compound: C1=CC2=C(C=CC(=C2)/C=C\3/C(=O)NC(=NCC4=CC=CS4)S3)N=C1
Method in brief: as §1

[5] = compound: C1=CC2=NC=CN=C2C=C1/C=C/3\C(=O)NC(=O)S3
Method in brief: as §1

[6] = compound: C1=CC=C(C=C1)C2=NC(=C(N2)C3=CC=NC=C3)C4=CC(=C(C=C4)Cl)O
Method in brief: as §1

[7] = compound: C1=CC=C2C(=C1)C3=NNC4=CC=CC(=C43)C2=O
Method in brief: as §1

[8] = compound: C1CCN(C1)C(=O)NC2=CC=CC(=C2)NC3=NC=C(C(=N3)NCCC4=CN=CN4)Br
Method in brief: as §1

[9] = compound: C1CN(CCC1(CC2=CC=C(C=C2)Cl)N)C3=NC=NC4=C3C=CN4
Method in brief: as §1

Measured: log2 fold change

LUZP1 (UniProt Q86V48)
inactive: erlotinib -0.094 | [1] -0.035 | [2] -0.328 | [3] -0.01 | [4] -0.131 | [5] -0.095 | [6] -0.091 | [7] -0.187 | [8] -0.06 | [9] -0.297

MAN2A2 (UniProt P49641)
inactive: erlotinib -0.034 | [1] 0.005 | [2] 0.016 | [3] 0.018 | [4] 0.08 | [5] 0.009 | [6] 0.055 | [7] -0.011 | [8] -0.026 | [9] 0.004

LYPLA1 (UniProt O75608)
inactive: erlotinib -0.04 | [1] 0.032 | [2] 0.132 | [3] 0.012 | [4] 0.076 | [5] 0.009 | [6] 0.057 | [7] -0.022 | [8] -0.011 | [9] 0.004

Quoted at random: 2 records from the list, in no set order.
LUZP1 (UniProt Q86V48)
inactive: erlotinib -0.094 | [1] -0.035 | [2] -0.328 | [3] -0.01 | [4] -0.131 | [5] -0.095 | [6] -0.091 | [7] -0.187 | [8] -0.06 | [9] -0.297

MAN2A2 (UniProt P49641)
inactive: erlotinib -0.034 | [1] 0.005 | [2] 0.016 | [3] 0.018 | [4] 0.08 | [5] 0.009 | [6] 0.055 | [7] -0.011 | [8] -0.026 | [9] 0.004

Next part.

MAPK9 (UniProt P45984)
inactive: erlotinib 0.007 | [1] 0.027 | [2] 0.031 | [3] -0.02 | [4] 0 | [5] -0.02 | [6] -0.026 | [7] 0.202 | [8] 0.063 | [9] 0.016

MAP1LC3B2 (UniProt A6NCE7)
inactive: erlotinib 0.009 | [1] 0.093 | [2] 0.038 | [3] 0 | [4] -0.031 | [5] 0.052 | [6] 0.016 | [7] 0.083 | [8] -0.002 | [9] 0.036

MALSU1 (UniProt Q96EH3)
inactive: erlotinib 0.007 | [1] 0.158 | [2] -0.038 | [3] 0.043 | [4] 0.026 | [5] 0 | [6] 0.023 | [7] -0.009 | [8] 0.018 | [9] 0.022

LSM2 (UniProt Q9Y333)
inactive: erlotinib -0.051 | [1] 0.088 | [2] 0.06 | [3] -0.006 | [4] 0.009 | [5] 0.048 | [6] 0.062 | [7] 0.015 | [8] -0.009 | [9] 0.01

MAP3K7 (UniProt O43318)
inactive: erlotinib 0.078 | [1] 0.009 | [2] -0.067 | [3] -0.091 | [4] 0.034 | [5] -0.031 | [6] -0.016 | [7] 0.113 | [8] -0.005 | [9] -0.168

MAPRE1 (UniProt Q15691)
inactive: erlotinib -0.022 | [1] 0.053 | [2] 0.05 | [3] -0.011 | [4] 0.001 | [5] 0.037 | [6] 0.012 | [7] 0.036 | [8] 0 | [9] 0.031

LSM8 (UniProt O95777)
inactive: erlotinib -0.031 | [1] -0.002 | [2] -0.026 | [3] -0.017 | [4] 0.043 | [5] 0.038 | [6] -0.004 | [7] -0.016 | [8] -0.028 | [9] 0.012

MAP2K7 isoform 4 (UniProt O14733)
inactive: erlotinib 0.021 | [1] -0.005 | [2] 0.061 | [3] 0.017 | [4] 0.01 | [5] 0.017 | [6] -0.009 | [7] -0.032 | [8] -0.012 | [9] 0.023

LTF (UniProt P02788)
inactive: erlotinib -0.143 | [1] -0.152 | [2] 0.045 | [3] 0.098 | [4] -0.06 | [5] -0.007 | [6] -0.03 | [7] -0.221 | [8] 0.235 | [9] 0.257

LYSMD1 (UniProt Q96S90)
inactive: erlotinib 0.019 | [1] 0.084 | [2] 0.061 | [3] 0 | [4] 0.012 | [5] 0.097 | [6] 0.031 | [7] -0.07 | [8] 0.009 | [9] 0.038

MAP2K1 (UniProt Q02750)
inactive: erlotinib -0.012 | [1] 0.001 | [2] 0.037 | [3] -0.001 | [4] 0.074 | [5] 0.014 | [6] -0.028 | [7] -0.005 | [8] -0.002 | [9] -0.003

MAP3K2 (UniProt Q9Y2U5)
inactive: erlotinib 0.125 | [1] 0.012 | [2] 0.081 | [3] -0.024 | [4] -0.096 | [5] -0.066 | [6] 0.092 | [7] 0.129 | [8] -0.16 | [9] 0.198
